Assay results taken from the supplement of paper PMC10849652.
The other results are listed elsewhere or left out.

By UniProt entry, the sequences of proteins in these tests, tags left out. Where a name states a change or a piece, a line headed by the entry shows the natural chain unless it says otherwise.
UniProt P51159: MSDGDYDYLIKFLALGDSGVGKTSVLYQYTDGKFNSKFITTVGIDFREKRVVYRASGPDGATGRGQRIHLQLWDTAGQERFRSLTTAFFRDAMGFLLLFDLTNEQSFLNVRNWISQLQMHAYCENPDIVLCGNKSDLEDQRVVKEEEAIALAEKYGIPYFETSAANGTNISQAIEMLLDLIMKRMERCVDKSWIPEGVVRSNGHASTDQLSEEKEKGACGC
UniProt P62834: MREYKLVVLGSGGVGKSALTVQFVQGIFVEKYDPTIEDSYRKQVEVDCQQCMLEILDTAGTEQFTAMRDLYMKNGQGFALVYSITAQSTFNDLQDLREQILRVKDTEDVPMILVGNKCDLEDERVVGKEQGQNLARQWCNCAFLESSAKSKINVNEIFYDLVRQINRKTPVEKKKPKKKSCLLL
UniProt P54725: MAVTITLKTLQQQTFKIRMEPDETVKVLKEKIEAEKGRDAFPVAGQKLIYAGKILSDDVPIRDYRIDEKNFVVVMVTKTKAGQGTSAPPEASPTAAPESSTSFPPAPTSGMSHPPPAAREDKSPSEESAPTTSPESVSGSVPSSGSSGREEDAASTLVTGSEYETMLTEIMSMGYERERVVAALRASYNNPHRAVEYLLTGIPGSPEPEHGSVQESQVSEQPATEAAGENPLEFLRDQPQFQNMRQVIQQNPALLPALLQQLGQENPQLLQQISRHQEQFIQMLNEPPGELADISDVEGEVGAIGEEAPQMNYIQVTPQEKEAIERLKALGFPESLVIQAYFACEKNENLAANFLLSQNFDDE
UniProt Q15274: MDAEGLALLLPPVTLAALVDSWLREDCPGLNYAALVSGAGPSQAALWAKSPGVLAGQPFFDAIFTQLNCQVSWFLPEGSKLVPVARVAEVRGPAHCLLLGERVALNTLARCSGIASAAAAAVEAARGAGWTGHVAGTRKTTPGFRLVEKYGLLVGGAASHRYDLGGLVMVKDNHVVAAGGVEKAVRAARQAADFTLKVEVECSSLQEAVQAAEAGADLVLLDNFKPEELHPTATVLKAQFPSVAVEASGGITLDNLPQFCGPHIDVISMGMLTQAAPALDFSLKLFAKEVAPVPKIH
UniProt P09417: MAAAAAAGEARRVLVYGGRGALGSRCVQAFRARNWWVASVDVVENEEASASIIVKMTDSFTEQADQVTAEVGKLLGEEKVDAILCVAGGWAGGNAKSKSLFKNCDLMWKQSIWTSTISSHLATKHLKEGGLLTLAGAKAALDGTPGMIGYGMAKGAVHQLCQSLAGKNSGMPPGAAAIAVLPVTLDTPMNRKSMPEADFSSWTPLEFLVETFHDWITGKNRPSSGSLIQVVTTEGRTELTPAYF
UniProt P47736: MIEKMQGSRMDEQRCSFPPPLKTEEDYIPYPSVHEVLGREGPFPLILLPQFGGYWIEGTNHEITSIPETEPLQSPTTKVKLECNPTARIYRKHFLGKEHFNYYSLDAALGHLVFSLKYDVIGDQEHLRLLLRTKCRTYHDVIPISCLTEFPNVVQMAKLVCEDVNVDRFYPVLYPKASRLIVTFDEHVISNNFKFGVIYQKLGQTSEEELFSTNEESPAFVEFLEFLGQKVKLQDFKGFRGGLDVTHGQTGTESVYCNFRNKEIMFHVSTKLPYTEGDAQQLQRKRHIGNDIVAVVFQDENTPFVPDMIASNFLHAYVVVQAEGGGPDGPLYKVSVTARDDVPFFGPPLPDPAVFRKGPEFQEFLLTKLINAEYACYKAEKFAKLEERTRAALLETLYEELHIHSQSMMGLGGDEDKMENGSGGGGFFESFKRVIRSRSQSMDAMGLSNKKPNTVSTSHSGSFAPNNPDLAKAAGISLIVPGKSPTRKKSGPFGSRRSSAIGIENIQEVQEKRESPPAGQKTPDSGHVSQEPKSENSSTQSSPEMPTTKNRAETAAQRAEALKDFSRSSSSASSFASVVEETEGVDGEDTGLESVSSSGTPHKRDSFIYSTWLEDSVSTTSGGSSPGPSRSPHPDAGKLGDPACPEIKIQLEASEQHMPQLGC
UniProt Q9H0U4: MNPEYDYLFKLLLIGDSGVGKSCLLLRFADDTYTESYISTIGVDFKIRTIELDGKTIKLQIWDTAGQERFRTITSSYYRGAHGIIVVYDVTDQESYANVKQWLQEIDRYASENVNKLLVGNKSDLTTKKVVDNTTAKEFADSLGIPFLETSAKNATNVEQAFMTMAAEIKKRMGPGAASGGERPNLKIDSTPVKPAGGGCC
UniProt Q9H5N1: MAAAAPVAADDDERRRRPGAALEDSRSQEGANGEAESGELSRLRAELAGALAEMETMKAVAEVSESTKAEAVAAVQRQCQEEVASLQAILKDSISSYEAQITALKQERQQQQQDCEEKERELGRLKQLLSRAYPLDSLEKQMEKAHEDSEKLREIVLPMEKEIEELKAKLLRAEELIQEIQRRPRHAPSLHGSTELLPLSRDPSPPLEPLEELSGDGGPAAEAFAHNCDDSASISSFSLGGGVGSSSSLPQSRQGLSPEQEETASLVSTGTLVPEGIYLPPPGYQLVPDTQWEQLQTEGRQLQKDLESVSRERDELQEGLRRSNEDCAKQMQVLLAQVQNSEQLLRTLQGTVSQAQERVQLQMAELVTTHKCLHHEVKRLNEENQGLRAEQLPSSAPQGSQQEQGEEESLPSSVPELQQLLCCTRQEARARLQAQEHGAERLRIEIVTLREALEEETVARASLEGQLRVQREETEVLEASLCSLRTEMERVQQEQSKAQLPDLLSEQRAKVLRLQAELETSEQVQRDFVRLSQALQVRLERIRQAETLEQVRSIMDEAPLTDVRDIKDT
UniProt Q9NP72: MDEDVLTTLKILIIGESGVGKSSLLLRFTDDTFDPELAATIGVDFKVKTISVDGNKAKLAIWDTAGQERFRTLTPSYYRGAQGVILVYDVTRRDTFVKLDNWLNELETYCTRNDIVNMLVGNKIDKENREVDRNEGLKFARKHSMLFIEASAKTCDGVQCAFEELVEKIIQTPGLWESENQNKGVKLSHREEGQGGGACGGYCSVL
UniProt P49792, whole entry, looked up: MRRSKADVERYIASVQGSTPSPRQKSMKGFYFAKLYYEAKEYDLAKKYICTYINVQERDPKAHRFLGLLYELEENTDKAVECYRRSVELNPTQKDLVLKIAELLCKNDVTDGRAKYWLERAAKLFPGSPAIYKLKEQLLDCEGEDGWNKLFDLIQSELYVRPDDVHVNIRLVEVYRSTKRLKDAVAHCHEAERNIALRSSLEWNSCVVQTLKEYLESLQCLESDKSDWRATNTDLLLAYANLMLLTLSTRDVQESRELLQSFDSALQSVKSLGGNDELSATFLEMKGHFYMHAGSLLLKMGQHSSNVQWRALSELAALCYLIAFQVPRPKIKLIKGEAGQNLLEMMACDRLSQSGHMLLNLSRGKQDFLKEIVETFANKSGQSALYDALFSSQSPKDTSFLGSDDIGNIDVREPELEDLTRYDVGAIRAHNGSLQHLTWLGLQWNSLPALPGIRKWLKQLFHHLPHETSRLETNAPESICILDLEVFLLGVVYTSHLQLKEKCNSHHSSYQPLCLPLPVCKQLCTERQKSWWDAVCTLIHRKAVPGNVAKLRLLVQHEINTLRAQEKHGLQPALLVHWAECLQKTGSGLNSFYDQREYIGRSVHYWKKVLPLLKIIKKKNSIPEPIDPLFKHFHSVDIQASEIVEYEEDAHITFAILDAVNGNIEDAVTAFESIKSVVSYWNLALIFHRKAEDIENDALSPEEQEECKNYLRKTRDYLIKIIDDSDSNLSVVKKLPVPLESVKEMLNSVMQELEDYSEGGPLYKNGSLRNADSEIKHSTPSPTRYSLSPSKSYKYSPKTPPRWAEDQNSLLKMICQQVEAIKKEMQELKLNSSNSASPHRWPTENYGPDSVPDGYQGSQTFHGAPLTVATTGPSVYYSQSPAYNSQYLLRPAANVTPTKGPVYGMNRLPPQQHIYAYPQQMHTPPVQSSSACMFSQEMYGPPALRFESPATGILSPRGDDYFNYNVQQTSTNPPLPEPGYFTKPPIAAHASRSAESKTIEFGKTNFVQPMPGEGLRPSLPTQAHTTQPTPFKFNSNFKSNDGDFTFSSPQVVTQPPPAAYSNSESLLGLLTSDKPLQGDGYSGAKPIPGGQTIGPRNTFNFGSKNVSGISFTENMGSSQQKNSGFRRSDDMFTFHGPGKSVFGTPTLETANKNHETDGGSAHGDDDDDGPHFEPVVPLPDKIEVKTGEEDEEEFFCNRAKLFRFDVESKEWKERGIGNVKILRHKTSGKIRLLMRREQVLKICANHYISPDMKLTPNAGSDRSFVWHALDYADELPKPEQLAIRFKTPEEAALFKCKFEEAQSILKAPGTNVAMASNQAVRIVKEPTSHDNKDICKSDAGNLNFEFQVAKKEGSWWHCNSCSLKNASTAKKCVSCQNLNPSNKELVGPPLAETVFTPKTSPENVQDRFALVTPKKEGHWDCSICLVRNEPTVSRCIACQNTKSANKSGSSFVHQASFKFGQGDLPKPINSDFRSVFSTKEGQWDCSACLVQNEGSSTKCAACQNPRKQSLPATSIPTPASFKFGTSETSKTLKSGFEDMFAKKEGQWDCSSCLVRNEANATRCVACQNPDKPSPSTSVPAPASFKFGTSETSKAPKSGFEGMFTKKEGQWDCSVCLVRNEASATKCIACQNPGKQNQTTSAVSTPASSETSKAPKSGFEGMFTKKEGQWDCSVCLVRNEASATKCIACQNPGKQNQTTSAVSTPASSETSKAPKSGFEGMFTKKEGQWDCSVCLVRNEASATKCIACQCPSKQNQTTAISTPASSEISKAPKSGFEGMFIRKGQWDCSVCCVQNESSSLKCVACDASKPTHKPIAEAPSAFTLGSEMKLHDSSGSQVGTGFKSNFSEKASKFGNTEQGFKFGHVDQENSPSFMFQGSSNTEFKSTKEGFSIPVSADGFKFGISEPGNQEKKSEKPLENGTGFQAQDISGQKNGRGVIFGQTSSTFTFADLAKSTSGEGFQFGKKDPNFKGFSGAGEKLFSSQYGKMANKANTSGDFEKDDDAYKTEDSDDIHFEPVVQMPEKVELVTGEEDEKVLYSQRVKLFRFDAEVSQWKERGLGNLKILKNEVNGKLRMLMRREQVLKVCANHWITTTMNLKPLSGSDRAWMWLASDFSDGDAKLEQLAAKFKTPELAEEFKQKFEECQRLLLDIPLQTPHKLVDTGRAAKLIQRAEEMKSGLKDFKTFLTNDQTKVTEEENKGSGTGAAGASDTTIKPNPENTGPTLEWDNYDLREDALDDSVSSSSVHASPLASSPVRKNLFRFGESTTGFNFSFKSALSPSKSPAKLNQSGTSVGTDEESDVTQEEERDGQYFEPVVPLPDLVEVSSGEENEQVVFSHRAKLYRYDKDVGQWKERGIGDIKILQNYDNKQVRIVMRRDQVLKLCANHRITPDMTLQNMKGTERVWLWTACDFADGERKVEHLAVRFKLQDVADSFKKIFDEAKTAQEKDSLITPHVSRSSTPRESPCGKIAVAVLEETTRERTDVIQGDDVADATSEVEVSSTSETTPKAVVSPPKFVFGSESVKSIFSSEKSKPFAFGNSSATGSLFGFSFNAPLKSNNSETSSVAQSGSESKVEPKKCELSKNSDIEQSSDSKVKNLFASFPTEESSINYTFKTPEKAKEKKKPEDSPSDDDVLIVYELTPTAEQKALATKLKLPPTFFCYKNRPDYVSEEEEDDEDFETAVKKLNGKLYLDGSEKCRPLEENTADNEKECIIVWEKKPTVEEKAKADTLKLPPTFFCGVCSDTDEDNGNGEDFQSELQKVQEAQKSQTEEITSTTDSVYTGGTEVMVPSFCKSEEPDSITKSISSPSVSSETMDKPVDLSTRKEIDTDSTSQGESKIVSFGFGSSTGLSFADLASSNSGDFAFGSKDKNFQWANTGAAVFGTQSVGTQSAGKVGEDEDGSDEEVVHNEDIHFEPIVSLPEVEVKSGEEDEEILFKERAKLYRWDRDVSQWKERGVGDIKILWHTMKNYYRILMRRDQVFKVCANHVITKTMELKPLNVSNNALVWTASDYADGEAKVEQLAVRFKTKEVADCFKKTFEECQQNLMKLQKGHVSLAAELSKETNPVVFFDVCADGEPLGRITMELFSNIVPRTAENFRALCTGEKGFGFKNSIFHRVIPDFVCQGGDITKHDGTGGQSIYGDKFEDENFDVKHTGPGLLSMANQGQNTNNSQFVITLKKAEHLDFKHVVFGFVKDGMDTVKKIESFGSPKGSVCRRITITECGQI
UniProt Q7Z6M1: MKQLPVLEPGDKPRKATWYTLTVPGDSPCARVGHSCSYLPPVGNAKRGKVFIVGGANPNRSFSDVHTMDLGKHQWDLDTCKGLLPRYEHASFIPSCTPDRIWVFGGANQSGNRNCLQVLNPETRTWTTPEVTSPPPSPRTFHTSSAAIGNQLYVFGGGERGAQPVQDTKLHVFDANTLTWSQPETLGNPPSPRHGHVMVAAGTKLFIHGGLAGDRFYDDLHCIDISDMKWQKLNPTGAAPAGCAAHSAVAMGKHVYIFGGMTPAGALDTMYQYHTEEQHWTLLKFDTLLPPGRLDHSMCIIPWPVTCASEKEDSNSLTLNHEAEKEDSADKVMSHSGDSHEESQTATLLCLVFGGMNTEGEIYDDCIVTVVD

Experiments:
Assay in all cases: log2 fold change, soluble protein after heating vs DMSO (PISA); higher = thermal stabilisation; K562 lysate, 10 uM; active = over 0.2 and 3.5 SD of the protein, either way, in both replicates (recomputed)
vemurafenib = compound: CCCS(=O)(=O)Nc1ccc(F)c(C(=O)c2c[nH]c3ncc(-c4ccc(Cl)cc4)cc23)c1F [vemurafenib]
How it was run: (§1)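 K562 pellets were dounce-homogenised in PBS pH 7.4 with 1 mM MgCl2, and the crude extract at 1 mg/mL protein was treated with 10 μM compound for 30 min. Aliquots were heated for 3 min across 48°C-58°C, pooled, and brought to 0.5% NP-40 at 4°C; soluble protein was the supernatant after 21,000xg for 90 min. Soluble protein was quantified by TMTpro 16plex LC-MS/MS with channel sums equalised, and reported as log2 fold change in thermal stability against DMSO controls, with values from duplicates.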

[1] = compound: CCCS(=O)(=O)Nc1ccc(F)c(C(=O)c2c[nH]c3ncc(Cl)cc23)c1F
How it was run: as §1

barasertib = compound: CCN(CCCOc1ccc2c(Nc3cc(CC(=O)Nc4cccc(F)c4)[nH]n3)ncnc2c1)CCOP(=O)(O)O [barasertib]
How it was run: as §1

[2] = compound: CC[C@@H]1C(=O)N(C)c2cnc(Nc3ccc(C(=O)NC4CCN(C)CC4)cc3OC)nc2N1C1CCCC1
How it was run: as §1

volasertib = compound: CC[C@@H]1C(=O)N(C)c2cnc(Nc3ccc(C(=O)N[C@H]4CC[C@H](N5CCN(CC6CC6)CC5)CC4)cc3OC)nc2N1C(C)C [volasertib]
How it was run: as §1

[3] = compound: CCn1c(C(=O)N(C2CC2)C2CC2)cc2c3c(ncn3C)c(Nc3cc(C)n(C)n3)nc21
How it was run: as §1

[4] = compound: CCn1cc(-c2ccnc3[nH]c(-c4cccc(CN(C)C)c4)cc23)c(-c2ccc(NC(=O)N(C)C)cc2)n1
How it was run: as §1

[5] = compound: CN1CCC(CNc2ccc3ncc(-c4cccc(OC(F)(F)F)c4)n3n2)CC1
How it was run: as §1

saracatinib = compound: CN1CCN(CCOc2cc(OC3CCOCC3)c3c(Nc4c(Cl)ccc5c4OCO5)ncnc3c2)CC1 [saracatinib]
How it was run: as §1

sotrastaurin = compound: CN1CCN(c2nc(C3=C(c4c[nH]c5ccccc45)C(=O)NC3=O)c3ccccc3n2)CC1 [sotrastaurin]
How it was run: as §1

Row | Target | log2 fold change (vemurafenib) | log2 fold change [1] | log2 fold change (barasertib) | log2 fold change [2] | log2 fold change (volasertib) | log2 fold change [3] | log2 fold change [4] | log2 fold change [5] | log2 fold change (saracatinib) | log2 fold change (sotrastaurin)
1 | RABGAP1L isoform 3 (UniProt Q5R372) | inactive: -0.008 | inactive: -0.004 | inactive: -0.018 | inactive: -0.006 | inactive: -0.028 | inactive: -0.011 | inactive: -0.079 | inactive: 0.059 | inactive: 0.017 | inactive: 0.002
2 | RANBP9 (UniProt Q96S59) | inactive: 0.01 | inactive: 0.01 | inactive: 0.01 | inactive: 0.002 | inactive: 0.004 | inactive: -0.004 | inactive: -0.013 | inactive: 0.026 | inactive: 0.012 | inactive: 0.027
3 | RAC2 (UniProt P15153) | inactive: 0.028 | inactive: 0.034 | inactive: 0.054 | inactive: 0.049 | inactive: -0.071 | inactive: -0.001 | inactive: -0.011 | inactive: 0.008 | inactive: 0.045 | inactive: -0.058
4 | RAB27A (UniProt P51159) | inactive: -0.037 | inactive: -0.024 | inactive: 0.012 | inactive: -0.056 | inactive: -0.082 | inactive: 0.034 | active: 0.679 | inactive: -0.048 | inactive: 0.021 | inactive: 0.001
5 | RAB21 (UniProt Q9UL25) | inactive: -0.038 | inactive: -0.005 | inactive: 0.041 | inactive: 0.005 | inactive: -0.006 | inactive: 0.008 | active: 0.262 | inactive: -0.06 | inactive: 0.029 | inactive: -0.021
6 | QSOX2 (UniProt Q6ZRP7) | inactive: 0.027 | inactive: 0.015 | inactive: 0.031 | inactive: 0.019 | inactive: 0.012 | inactive: -0.018 | inactive: -0.11 | inactive: 0.061 | inactive: 0.05 | inactive: -0.042
7 | RAP1A (UniProt P62834) | inactive: -0.002 | inactive: -0.017 | inactive: 0.041 | inactive: 0.019 | inactive: 0.009 | inactive: -0.008 | inactive: -0.092 | inactive: 0.029 | inactive: -0.017 | inactive: -0.006
8 | RAB5A (UniProt P20339) | inactive: -0.007 | inactive: 0.012 | inactive: 0.02 | inactive: 0.066 | inactive: 0.036 | inactive: -0.074 | inactive: -0.003 | inactive: 0.001 | inactive: 0.034 | inactive: 0.017
9 | RAD23A (UniProt P54725) | inactive: -0.019 | inactive: -0.016 | inactive: 0.131 | inactive: 0.037 | inactive: 0.018 | inactive: 0.028 | inactive: -0.018 | inactive: 0.032 | inactive: 0.004 | inactive: 0.006
10 | RAI14 isoform 2 (UniProt Q9P0K7) | inactive: 0.001 | inactive: 0.066 | inactive: 0.061 | inactive: -0.019 | inactive: 0.005 | inactive: 0 | inactive: 0.045 | inactive: -0.011 | inactive: 0.031 | inactive: 0.026
11 | QTRT2 isoform 4 (UniProt Q9H974) | inactive: 0.003 | inactive: 0.012 | inactive: 0.004 | inactive: -0.022 | inactive: 0.036 | inactive: -0.035 | active: -0.318 | active: 0.227 | inactive: 0.016 | inactive: 0.013
12 | QARS (UniProt P47897) | inactive: 0.021 | inactive: 0.013 | inactive: 0.042 | inactive: -0.019 | inactive: -0.071 | inactive: 0.048 | inactive: -0.044 | inactive: -0.076 | inactive: 0.002 | inactive: 0.03
13 | QPRT (UniProt Q15274) | inactive: 0.024 | inactive: 0.01 | inactive: 0.105 | inactive: 0.024 | inactive: 0.043 | inactive: 0.018 | inactive: -0.03 | inactive: 0 | inactive: -0.012 | inactive: -0.085
14 | RAB3D (UniProt O95716) | inactive: -0.102 | inactive: -0.034 |  | inactive: 0.08 | inactive: -0.024 | inactive: 0.145 |  |  | inactive: -0.015 | inactive: -0.051
15 | QDPR (UniProt P09417) | inactive: -0.037 | inactive: 0.002 | inactive: 0.007 | inactive: 0.018 | inactive: 0.021 | inactive: 0.019 | inactive: -0.021 | inactive: 0.011 | inactive: -0.026 | inactive: 0.019
16 | RAB12 (UniProt Q6IQ22) | inactive: -0.007 | inactive: 0.025 | inactive: -0.002 | inactive: 0.054 | inactive: 0.017 | inactive: -0.003 | inactive: -0.043 | inactive: 0.041 | inactive: -0.017 | inactive: 0.004
17 | RAP1GAP isoform 4 (UniProt P47736) | inactive: 0.009 | inactive: 0.055 | inactive: 0.008 | inactive: 0.044 | inactive: -0.075 | inactive: 0.003 | inactive: -0.038 | inactive: 0.02 | inactive: 0.06 | inactive: 0.029

Laid out differently: results already given
Row	Target	log2 fold change (vemurafenib)	log2 fold change [1]	log2 fold change (barasertib)	log2 fold change [2]	log2 fold change (volasertib)	log2 fold change [3]	log2 fold change [4]	log2 fold change [5]	log2 fold change (saracatinib)	log2 fold change (sotrastaurin)
4	RAB27A (UniProt P51159)	inactive: -0.037	inactive: -0.024	inactive: 0.012	inactive: -0.056	inactive: -0.082	inactive: 0.034	active: 0.679	inactive: -0.048	inactive: 0.021	inactive: 0.001
5	RAB21 (UniProt Q9UL25)	inactive: -0.038	inactive: -0.005	inactive: 0.041	inactive: 0.005	inactive: -0.006	inactive: 0.008	active: 0.262	inactive: -0.06	inactive: 0.029	inactive: -0.021

More entries:

Row | Target | log2 fold change (vemurafenib) | log2 fold change [1] | log2 fold change (barasertib) | log2 fold change [2] | log2 fold change (volasertib) | log2 fold change [3] | log2 fold change [4] | log2 fold change [5] | log2 fold change (saracatinib) | log2 fold change (sotrastaurin)
18 | QRSL1 (UniProt Q9H0R6) | inactive: 0.134 | inactive: 0.012 | inactive: 0.044 | inactive: -0.004 | inactive: -0.057 | inactive: 0.008 | inactive: -0.178 | inactive: -0.138 | inactive: -0.056 | inactive: 0.071
19 | RAN (UniProt P62826) | inactive: -0.021 | inactive: -0.047 | inactive: -0.039 | inactive: 0.033 | inactive: -0.001 | inactive: -0.021 | inactive: 0.07 | inactive: -0.041 | inactive: -0.005 | inactive: -0.016
20 | RAB1B (UniProt Q9H0U4) | inactive: -0.003 | inactive: 0.012 | inactive: 0.073 | inactive: 0.019 | inactive: 0.006 | inactive: -0.016 | active: -0.444 | inactive: 0.171 | inactive: 0.021 | inactive: 0.017
21 | RAB10 (UniProt P61026) | inactive: -0.024 | inactive: -0.014 | inactive: 0.04 | inactive: 0.038 | inactive: -0.001 | inactive: -0.037 | inactive: -0.016 | inactive: 0.031 | inactive: 0.02 | inactive: 0.074
22 | RABEP2 (UniProt Q9H5N1) | inactive: -0.054 | inactive: 0.03 | inactive: 0.037 | inactive: 0.036 | inactive: 0.014 | inactive: 0 | inactive: 0.127 | inactive: -0.064 | inactive: 0.049 | inactive: 0.022
23 | RAD54L2 (UniProt Q9Y4B4) | inactive: 0.159 | inactive: 0.081 | inactive: -0.032 | inactive: -0.201 | inactive: -0.072 |  | inactive: -0.149 | inactive: 0 | inactive: 0.078 | inactive: -0.061
24 | RAB18 (UniProt Q9NP72) | inactive: -0.06 | inactive: -0.128 | inactive: 0.021 | inactive: -0.043 | inactive: 0.005 |  | inactive: 0.132 | inactive: -0.051 | inactive: 0.151 | inactive: 0.033
25 | PYCR1 (UniProt J3QKT4) | inactive: 0.263 | inactive: 0.068 | inactive: 0.147 | inactive: 0.43 | inactive: 0.004 | inactive: -0.287 |  |  | inactive: 0.251 | inactive: -0.104
26 | RALA (UniProt P11233) | inactive: 0.033 | inactive: 0.004 | inactive: -0.001 | inactive: 0.029 | inactive: 0.014 | inactive: -0.023 | active: -0.289 | inactive: 0.169 | inactive: -0.021 | inactive: -0.027
27 | RAB40C (UniProt Q96S21) | inactive: 0.061 | inactive: -0.141 | inactive: -0.028 | inactive: 0.122 | inactive: -0.12 | inactive: -0.116 | inactive: -0.049 | inactive: 0.099 |  | inactive: 0.091
28 | PYGB (UniProt P11216) | inactive: -0.014 | inactive: 0.014 | inactive: 0.001 | inactive: -0.154 | inactive: 0.006 | inactive: -0.004 | inactive: 0.061 | inactive: -0.035 | inactive: 0.033 | inactive: 0.004
29 | RAD50 isoform 2 (UniProt Q92878) | inactive: 0.004 | inactive: 0.013 | inactive: 0.025 | inactive: -0.011 | inactive: -0.047 | inactive: 0.039 | inactive: -0.024 | inactive: -0.024 | inactive: 0 | inactive: 0.036
30 | RANBP2 (UniProt P49792) | inactive: -0.031 | inactive: 0.015 | inactive: 0.043 | inactive: -0.022 | inactive: -0.048 | inactive: 0.026 | inactive: -0.019 | inactive: -0.031 | inactive: 0.018 | inactive: 0.015
31 | RAB11FIP1 (UniProt Q6WKZ4) | inactive: -0.003 | inactive: 0.013 | inactive: 0.011 | inactive: 0.055 | inactive: -0.033 | inactive: 0.01 | inactive: 0.033 | inactive: -0.091 | inactive: 0.033 | inactive: 0.023
32 | RABEPK (UniProt Q7Z6M1) | inactive: -0.024 | inactive: 0.003 | inactive: -0.066 | inactive: 0.014 | inactive: -0.006 | inactive: -0.021 | inactive: 0.015 | inactive: 0.011 | inactive: -0.02 | inactive: -0.028
33 | RABAC1 (UniProt Q9UI14) | inactive: 0.026 | inactive: 0.028 | inactive: -0.005 | inactive: 0.175 | inactive: 0.001 | inactive: -0.099 |  |  | inactive: 0.005 | inactive: 0.206
